Values from PubChem BioAssay AID504786 (Drosophila RNAi Screening Center, 2011)
Aim: 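Knock-downs reducing HIF reporter induction by the iron chelator DFO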 (primary screen). System: Drosophila S2 cells with a stable HIF luciferase reporter. Reagent: long dsRNA against Drosophila genes, about 0.2 µg dsRNA per well of a 384-well plate. Duration: three days of knock-down, then 20 h of DFO before reading. Challenge: desferrioxamine (DFO) at 100 µM, an iron chelator that mimics hypoxia, for 20 h. Read-out: 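HIF reporter luminescence in cells given 100 µM DFO for 20 h, using the mouse ldh-a hypoxia-response element, scored as per-plate z-scores; higher means greater loss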. Reading the numbers: z-score: higher = stronger loss of HIF reporter signal.
The screen tested about 21,000 reagents; below is an unselected part of those with a known target gene and a result. 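Primary screen; positive scores mean lost reporter signal, so the sign may be inverted from the usual convention.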 The numbers tell different reagents against one gene apart. Names joined by + are all predicted targets of the reagent. Further read-outs or replicates are left out here.

THG showed z-score, replicate 1 = -0.1.
Depletion of Naa35 came out at: z-score, replicate 1 = -0.2.
CG9784 scored z-score, replicate 1 = -0.4.
Depletion of CG32533 #1 came out at: z-score, replicate 1 = -0.4.
Silencing of CG32533 #2 gave: z-score, replicate 1 = -0.4.
With knock-down of CR18275 + CG13373, the record shows z-score, replicate 1 = -0.3.
ens gave z-score, replicate 1 = -0.2.
After knock-down of psq, the record shows z-score, replicate 1 = 1.5.
CG2961 scored z-score, replicate 1 = -0.3.
Silencing of CG1983 came out at: z-score, replicate 1 = -0.1.
For Loxl1, the entry reads z-score, replicate 1 = -0.2.
After knock-down of gt, the screen gave z-score, replicate 1 = 0.4.
With knock-down of azot, the screen gave z-score, replicate 1 = -0.3.

A few values from above.
Under “z-score, replicate 1”, CG2961 is entered as -0.3
Naa35, z-score, replicate 1: -0.2
For “z-score, replicate 1”, THG reads -0.1
For “z-score, replicate 1”, CR18275 + CG13373 has -0.3
CG32533 #2, z-score, replicate 1: -0.4
ens, z-score, replicate 1 → -0.2

Further results follow:
Depletion of meng gave: z-score, replicate 1 = -0.2.
Depletion of CG33191 + Pif1B came out at: z-score, replicate 1 = -0.3.
Trf4-1 showed z-score, replicate 1 = -0.2.
fest showed z-score, replicate 1 = 1.4.
Against RpS27A the deposit lists z-score, replicate 1 = 3.7.
Against RpLP1 the deposit lists z-score, replicate 1 = 3.2.
For PCB, the values are z-score, replicate 1 = -0.4.
With knock-down of chk the results were z-score, replicate 1 = -0.3.
With knock-down of CG3556 the results were z-score, replicate 1 = -0.1.
After knock-down of CG10081, the screen gave z-score, replicate 1 = -0.2.
After knock-down of CG4390, the record shows z-score, replicate 1 = -0.2.
For Cpr35B the deposit lists z-score, replicate 1 = -0.3.
For CG9849, the entry reads z-score, replicate 1 = -0.3.
Knock-down of Klp31E resulted in: z-score, replicate 1 = -0.2.
With knock-down of CG5885, the record shows z-score, replicate 1 = 0.4.
For Oseg2 the deposit lists z-score, replicate 1 = -0.4.
After knock-down of CG34050 (retired record), the screen gave z-score, replicate 1 = 4.4.
With knock-down of CG7907, the record shows z-score, replicate 1 = 0.3.
Knock-down of Sf3a2 gave: z-score, replicate 1 = 3.2.
Mst98Ca scored z-score, replicate 1 = -0.4.
With knock-down of RpL6, the screen gave z-score, replicate 1 = 2.2.
For Ak6, the values are z-score, replicate 1 = -0.4.
CycK gave z-score, replicate 1 = 1.6.
With knock-down of Nup54 the results were z-score, replicate 1 = 0.3.
Against Pa1, the entry reads z-score, replicate 1 = -0.3.
TM9SF4 #1 gave z-score, replicate 1 = -0.5.
TM9SF4 #2 scored z-score, replicate 1 = -0.3.
